± gives the standard deviation. This is one part of the list. Many of these values have a large error.
Tested on: EfPiwi piRISC loaded with L1MC piRNA (26 nt)
Assay: pre-steady-state target cleavage rate (min^-1); guide: L1MC piRNA 5'p-UAACUAAAUACUAUGCAAGCUGUAGG; MIWI and MILI are mouse PIWI proteins and EfPiwi is from a freshwater sponge; tags in brackets are library labels; higher = faster piRNA-guided slicing of the target
Settings: auxiliary factor: none (no Gtsf1)
Outline: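 Cleave-'n-Seq used a transcribed, DNA-blocked target RNA library at 0.1 nM and active affinity-purified piRISC with one synthetic guide at 1 nM, with or without 500 nM GTSF1 partner protein, in HEPES–potassium acetate buffer at 33 °C for 0–8 or 0–960 min. Uncleaved targets were sequenced and normalised to depth and to weakly complementary targets, and three trials were pooled with k3 capped at 0.0001 min^-1. The pre-steady-state cleavage rate was estimated by a burst-and-steady-state fit.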

Sequence	pre-steady-state target cleavage rate
UCCUGGAUGUCGAACGUAUGUAUUUAUUA	< 0.0001
UCCUGCUACUCGUUGCAUAGUAUUUAGUUA	0.000702 ± 0.013
UCCUGCUACAGCUUGCAUAGUAUUCAGUUA	0.000887 ± 0.0079
UCCUGGAACAGCUUGCAUAGUAUGUAGUUA	0.000453 ± 0.021
UCCUGGUACAGCUCUGCAUAGUAUUUAGUUA	0.000426 ± 0.034
UCCUGGAUGUCGAACGAUAGUAUUUGGUUA	< 0.0001
UCCUGGAUGUCGAACGAUAGUAUAUAGUAA	0.00017 ± 0.032
